Laboratory results taken from paper PMC7026398, “Structural and functional insight into the effect of AFF4 dimerization on activation of HIV-1 proviral transcription” (Cell Discovery, 2020).
No constants are given. Whether binding was seen depends on the method and setting.

Experiments:
[1] = target: AFF1-THD F1063A+Y1145A+V1146A+V1152A (UniProt P51825); assay: AUC; sedimentation velocity, 20 °C, 50,000 rpm, 25 mM Tris pH 8.0, 150 mM NaCl, 2 mM DTT; self-association, dimer or monomer; both purified
[2] = target: AFF1-THD F1063A+Y1145A+V1146A+V1152A (UniProt P51825); assay: SEC; analytical gel filtration, Superdex 75 10/300 increase, 25 mM Tris pH 8.0, 150 mM NaCl, 2 mM DTT; 6 mg/ml, 100 μl injected; self-association, dimer or monomer by elution volume; both purified

B1: AFF1-THD F1063A+Y1145A+V1146A+V1152A (domain or fragment, UniProt P51825 953-1210)
chain: GKPQVKFDKQQADLHMREAKKMKQKAELMTDRVGKAFKYLEAVLSFIECGIATESESQSSKSAYSVYSETVDLIKFIMSLKSFSDATAPTQEKIFAVLCMRCQSILNMAMARCKKDIAIKYSRTLNKHFESSSKVAQAPSPCIASTGTPSPLSPMPSPASSVGSQSSAGSVGSSGVAATISTPVTIQNMTSSAATITSHALTAFDLWEQAEALTRKNKEFFARLSTNVCTLALNSSLVDLVHYTRQGFQQLQELTKTP
**Q.** B1 was tested. Which binding [1] did it give?
**A.** The binding was “no binding”.

**Q.** What about the binding [2] of the same binder?
**A.** The binding was “no binding (tested: 6 mg/ml injected)”.
